Experimental data reported in the supplement of paper PMC10727501.
This is one part of the list. Repeats in this data set agree poorly, so a single value says little.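 Researchers measured free-swimming zebrafish larvae's O-bend response probability to dark flashes (naive: first five; training: remaining flashes of four 60-flash blocks; test: later 60-flash block) and OMR turning toward alternating leftward/rightward LED motion. Six treated larvae were compared to sixty 0.1% DMSO controls, with |SSMD|≥2 marking a hit.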

What follows are compounds tested on Danio rerio larvae (5 dpf, TLF) (assay: OMR-Perf (SSMD vs DMSO vehicle); higher = higher than vehicle (e.g. higher dark-flash O-bend response probability, or better optomotor performance)). Settings: 10 µM; pre-incubation: 30-90 min.

Row | Structure (SMILES) | OMR-Perf
1 | O=c1ncccn1[C@@H]1O[C@H](CO)[C@H](O)[C@@H]1O [Zebularine] | -0.282
2 | CN[C@@H]1[C@H](O[C@H]2[C@H](O[C@H]3[C@H](O)[C@@H](O)[C@@H](NC(=N)N)[C@@H](O)[C@@H]3NC(=N)N)O[C@@H](C)[C@@]2(O)C=O)O[C@H](CO)[C@H](O)[C@H]1O.CN[C@@H]1[C@H](O[C@H]2[C@H](O[C@H]3[C@H](O)[C@@H](O)[C@@H](NC(=N)N)[C@@H](O)[C@@H]3NC(=N)N)O[C@@H](C)[C@@]2(O)C=O)O[C@H](CO)[C@H](O)[C@H]1O.O=S(=O)(O)O.O=S(=O)(O)O.O=S(=O)(O)O [Streptomycin sulfate] | 0.753
3 | C=Cc1c(C)c2cc3nc(cc4[nH]c(cc5nc(cc1[nH]2)C(C)=C5CCC(=O)O)c(CCC(=O)OC)c4C)[C@@]1(C)C3=CC=C(C(=O)OC)[C@H]1C(=O)OC [Verteporfin (Visudyne)] | -0.587
4 | COC(=O)N[C@H](C(=O)N[C@@H](Cc1ccccc1)[C@@H](O)CN(Cc1ccc(-c2ccccn2)cc1)NC(=O)[C@@H](NC(=O)OC)C(C)(C)C)C(C)(C)C.O=S(=O)(O)O [Atazanavir Sulfate] | 0.198
5 | CCC(CC)[C@H](NC(C)=O)[C@@H]1[C@H](O)[C@@H](C(=O)O)C[C@H]1NC(=N)N.O.O.O [Peramivir Trihydrate] | -0.183
6 | C=CC(=O)Nc1cccc(Oc2nc(Nc3ccc(N4CCN(C)CC4)cc3)ncc2Cl)c1 | -0.278

A portion of the results above, as a working copy:
Row | Structure (SMILES) | OMR-Perf
3 | C=Cc1c(C)c2cc3nc(cc4[nH]c(cc5nc(cc1[nH]2)C(C)=C5CCC(=O)O)c(CCC(=O)OC)c4C)[C@@]1(C)C3=CC=C(C(=O)OC)[C@H]1C(=O)OC [Verteporfin (Visudyne)] | -0.587
4 | COC(=O)N[C@H](C(=O)N[C@@H](Cc1ccccc1)[C@@H](O)CN(Cc1ccc(-c2ccccn2)cc1)NC(=O)[C@@H](NC(=O)OC)C(C)(C)C)C(C)(C)C.O=S(=O)(O)O [Atazanavir Sulfate] | 0.198
